Source: PubChem BioAssay AID248 (DTP/NCI, 2004)
The list shows only some results of the screen, not a fair sample: it gathers tests that were run many times, whatever their T/C, doses with no T/C, and many T/C values between a quarter and a half above the control. Further doses and runs are listed elsewhere. T/C gives the treated animals as a percentage of the vehicle group. Some entries give survivors of the animals treated and no T/C: the source files T/C as zero there, which appears to mark a toxic dose or a test without result, not a measured value. Some survivor counts are full or nearly so, which does not show that the dose was tolerated: survival well below the control is almost never listed, so the zero probably covers shortened survival too. Counts of survivors are from the toxicity check (mostly the fifth day) where no day follows; animals may have died later. Schedule codes are those of the source, read here as Q, the interval in days (D) or hours (H), X, the number of doses. Some schedule codes hold Z or #, which are not explained here. Where survival is the endpoint, the PubChem record calls one and a half times the control and up active, and a quarter to a half above the control has no call in these data; cut-offs in other NCI protocols can differ. Some T/C values carry the count of animals alive at the toxicity check (mostly the fifth day); where none is given, no animal had died by that day.

Tested on: L1210 leukemia ip in BDF1 mice, survival T/C
Experiment: NCI In Vivo Anticancer Drug Screen. Data for tumor model L1210 Leukemia (intraperitoneal) in B6D2F1 (BDF1) mice
Conditions: T/C endpoint: mean survival time, higher T/C = longer survival
[1] = dose: 300.0 mg/kg/injection, schedule: Q01DX001 (ip), vehicle: carboxymethylcellulose (CMC)
[2] = dose: 400.0 mg/kg/injection, schedule: Q01DX001 (ip), vehicle: saline
[3] = dose: 200.0 mg/kg/injection, schedule: Q01DX001 (ip), vehicle: saline
[4] = dose: 200.0 mg/kg/injection, schedule: Q04DX003 (ip), vehicle: saline with Tween-80
[5] = dose: 400.0 mg/kg/injection, schedule: Q01DX009 (ip), vehicle: saline with Tween-80
[6] = dose: 400.0 mg/kg/injection, schedule: Q04DX003 (ip), vehicle: saline with Tween-80
[7] = dose: 100.0 mg/kg/injection, schedule: Q04DX002 (ip), vehicle: Klucel (hydroxypropylcellulose) (HPC)
[8] = dose: 200.0 mg/kg/injection, schedule: Q04DX002 (ip), vehicle: Klucel (hydroxypropylcellulose) (HPC)
[9] = dose: 400.0 mg/kg/injection, schedule: Q04DX002 (ip), vehicle: Klucel (hydroxypropylcellulose) (HPC)

## CC1(C)C2CCC1(C)C(NC(=O)N(CCCl)N=O)C2 (stereo not given)
[1]
  T/C: 148 % of control
dose: 750.0 mg/kg/injection, schedule: Q01DX001 (ip), vehicle: carboxymethylcellulose (CMC)
  T/C: 145 % of control

## CCCCCC(CN(C)C)C(=O)/C=C/c1c(Cl)cccc1Cl (stereo not given)
dose: 50.0 mg/kg/injection, schedule: Q01DX009 (ip), vehicle: Klucel (hydroxypropylcellulose) (HPC)
  survivor count: 6 of 6
dose: 100.0 mg/kg/injection, schedule: Q01DX009 (ip), vehicle: Klucel (hydroxypropylcellulose) (HPC)
  survivor count: 2 of 6

## C=C1C(=O)OC2/C=C(\C)CC/C=C(\C)CC(OC(C)=O)C12 (stereo not given)
[2]
  survivor count: 1 of 4

## Cc1ccc([N+](=O)[O-])cc1O
[3]
  survivor count: 5 of 6
[2]
  survivor count: 0 of 6

## CC1(O)CCCCCCC1
[2]
  survivor count: 2 of 4

## NC(=O)c1cc([N+](=O)[O-])ccc1N=NN(CCCl)CCCl
dose: 100.0 mg/kg/injection, schedule: Q01DX009 (ip), vehicle: saline with Tween-80
  T/C: 140 % of control
[4]
  T/C: 132 % of control
[5]
  survivor count: 0 of 6
[6]
  T/C: 125 % of control
dose: 600.0 mg/kg/injection, schedule: Q04DX003 (ip), vehicle: saline with Tween-80
  T/C: 136 % of control

## CCc1nc2nnnn2c(CC)c1-c1ccccc1O
[7]
  survivor count: 3 of 3
[8]
  survivor count: 3 of 3
[9]
  survivor count: 3 of 3

## COC(OC)c1nc(SC)[nH]c(=O)c1C[N+](C)(C)C
[5]
  survivor count: 0 of 6

## O=C(CCBr)N1CCCN(C(=O)CCBr)CC1
dose: 240.0 mg/kg/injection, schedule: Q01DX Z (ip), vehicle: carboxymethylcellulose (CMC)
  T/C: 127 % of control
dose: 360.0 mg/kg/injection, schedule: Q01DX Z (ip), vehicle: carboxymethylcellulose (CMC)
  survivor count: 6 of 6
dose: 540.0 mg/kg/injection, schedule: Q01DX Z (ip), vehicle: carboxymethylcellulose (CMC)
  survivor count: 3 of 6

## Cc1ccc(CNC2=C(Cl)C(=O)c3ccccc3C2=O)cc1C
dose: 50.0 mg/kg/injection, schedule: Q04DX002 (ip), vehicle: Klucel (hydroxypropylcellulose) (HPC)
  survivor count: 0 of 3
[7]
  survivor count: 0 of 3
[8]
  survivor count: 0 of 3
[9]
  survivor count: 0 of 3

## c1ccc2[nH]c(-c3c[nH]c4ccccc34)cc2c1
[2]
  survivor count: 0 of 4

## ON=C1CSSC1
dose: 25.0 mg/kg/injection, schedule: Q04DX003 (ip), vehicle: saline with Tween-80
  survivor count: 0 of 6
dose: 50.0 mg/kg/injection, schedule: Q04DX003 (ip), vehicle: saline with Tween-80
  survivor count: 0 of 6

## OC(C(F)(F)F)C(F)(F)Cl (stereo not given)
[3]
  survivor count: 1 of 4
[2]
  survivor count: 1 of 4

## CCN(CC)CCOc1ccc(/C(=C(\Cl)c2ccccc2)c2ccccc2)cc1
dose: 25.0 mg/kg/injection, schedule: Q04DX002 (ip), vehicle: saline
  T/C: 132 % of control
dose: 100.0 mg/kg/injection, schedule: Q04DX002 (ip), vehicle: saline
  survivor count: 3 of 3
dose: 200.0 mg/kg/injection, schedule: Q04DX002 (ip), vehicle: saline
  survivor count: 2 of 3
dose: 400.0 mg/kg/injection, schedule: Q04DX002 (ip), vehicle: saline
  survivor count: 0 of 3

## CCN(CC)CCC(O)c1ccc2c(c1)[nH]c1ccccc12 (stereo not given)
[1]
  survivor count: 2 of 6

## COc1ccc(/C=C(\CCCOC(C)=O)[N+](=O)[O-])cc1OC
dose: 400.0 mg/kg/injection, schedule: Q01DX001 (ip), vehicle: carboxymethylcellulose (CMC)
  survivor count: 1 of 4

## CCCCNc1cc(Nc2ccc(Br)cc2)nc(N)n1
[2]
  survivor count: 1 of 4

## [Cl][Sn]([CH2]c1ccccc1)([CH2]c1ccccc1)[CH2]c1ccccc1
dose: 1.56 mg/kg/injection, schedule: Q04DX002 (ip), vehicle: saline with Tween-80
  T/C: 127 % of control [2 of 3 alive]
dose: 3.13 mg/kg/injection, schedule: Q04DX002 (ip), vehicle: saline with Tween-80
  survivor count: 1 of 3
dose: 6.25 mg/kg/injection, schedule: Q04DX002 (ip), vehicle: saline with Tween-80
  survivor count: 3 of 3
dose: 12.5 mg/kg/injection, schedule: Q04DX002 (ip), vehicle: saline with Tween-80
  survivor count: 3 of 3
dose: 25.0 mg/kg/injection, schedule: Q04DX002 (ip), vehicle: saline with Tween-80
  survivor count: 1 of 3
dose: 50.0 mg/kg/injection, schedule: Q04DX002 (ip), vehicle: saline with Tween-80
  survivor count: 1 of 3
dose: 100.0 mg/kg/injection, schedule: Q04DX003 (ip), vehicle: saline with Tween-80
  survivor count: 0 of 6
[4]
  survivor count: 0 of 6
[6]
  survivor count: 0 of 6

## CCCCCCCCC1OCC(C)O1 (stereo not given)
dose: 55.0 mg/kg/injection, schedule: Q01DX Z (ip), vehicle: methylcellulose (MC)
  survivor count: 5 of 6
dose: 82.5 mg/kg/injection, schedule: Q01DX Z (ip), vehicle: methylcellulose (MC)
  survivor count: 5 of 6
dose: 184.0 mg/kg/injection, schedule: Q01DX Z (ip), vehicle: methylcellulose (MC)
  survivor count: 5 of 6

## CC(C)c1cc(C(C)C)c(C(=O)Oc2c(Br)cc(Br)cc2Br)c(C(C)C)c1
[5]
  survivor count: 5 of 6

## c1cc(CCc2ccncc2)ccn1
dose: 200.0 mg/kg/injection, schedule: Q04DX003 (ip), vehicle: saline
  survivor count: 1 of 3
dose: 400.0 mg/kg/injection, schedule: Q04DX003 (ip), vehicle: saline
  survivor count: 0 of 3

## CC(=O)OCC1OC(N2C(=O)/C(=C/c3ccc4ccccc4c3)SC2=S)C(OC(C)=O)C(OC(C)=O)C1OC(C)=O (stereo not given)
dose: 100.0 mg/kg/injection, schedule: Q01DX005 (ip), vehicle: other
  survivor count: 6 of 6
dose: 200.0 mg/kg/injection, schedule: Q01DX005 (ip), vehicle: other
  survivor count: 5 of 6
dose: 400.0 mg/kg/injection, schedule: Q01DX005 (ip), vehicle: other
  survivor count: 6 of 6

## Cc1cccc(SC(=O)Cc2ccc([N+](=O)[O-])cc2)c1
[5]
  survivor count: 2 of 6

## [Cl][Sb]([O][Sb]([Cl])([c]1ccccc1)([c]1ccccc1)[c]1ccccc1)([c]1ccccc1)([c]1ccccc1)[c]1ccccc1
dose: 100.0 mg/kg/injection, schedule: Q04DX002 (ip), vehicle: saline with Tween-80
  survivor count: 3 of 3
dose: 200.0 mg/kg/injection, schedule: Q04DX002 (ip), vehicle: saline with Tween-80
  survivor count: 1 of 3
dose: 400.0 mg/kg/injection, schedule: Q04DX002 (ip), vehicle: saline with Tween-80
  survivor count: 0 of 3

## COc1cc([N+](=O)[O-])c2nc(C(=O)O)ccc2c1
[2]
  T/C: 125 % of control [3 of 4 alive]

## O=C(NNC(=O)OCc1ccccc1)OCc1ccccc1
dose: 400.0 mg/kg/injection, schedule: Q01DX009 (ip), vehicle: Klucel (hydroxypropylcellulose) (HPC)
  survivor count: 2 of 6
